Data reported in patent publication US20230348630A1.
Substitutions are numbered along the chain they refer to. In names and notes the source's numbering stands. No constants are given. Whether binding was seen depends on the method and setting. Binding can be weak; no strength is given. Each block holds one binder with its values, some of them ahead of it.

Experiments:
[1] = biological target: CD3D&E protein (Cat #: CT038-H2508H, Sino Biological) (human); experiment: SPR (BIAcore 8K)
[2] = biological target: CD3D&E protein (Cat #: CT038-H2508H, Sino Biological) (human); experiment: ELISA, coated CD3D&E

binding [1]: binds
binding [2]: binds
B1: anti-CD3D&E antibody D1E9, full-length human IgG1 (L234A/L235A/N297A)/kappa (antibody, V domains shown)
VH: EVQLVESGGGLVQPGRSLRLSCAASGFTFDDFAMHWVRQAPGKGLEWVSGITWNSGSVGYADSVKGRFTISRDNAKKSLYLQMNSLRAEDTALYYCAKDRSGYGHYYYGMDVWGQGTTVTVAS
VL: EIVMTQSPATLSVSPGERATLSCRASTSVSHNVAWYQQKPGQAPRLLIYGASTKVTGIPARFSGSGSGTEFTLTISSLQSEDFAVYYCQHYINWPLTFGGGTKVEIKR

binding [1]: binds
binding [2]: binds
B2: anti-CD3D&E antibody D12A4, full-length human IgG1 (L234A/L235A/N297A)/kappa (antibody, V domains shown)
VH: B1 VH with D30G, F32Y, T52S, S55H, S57H, V58I, R100N
VL: B1 VL with T27R, H31R, V33L, V55P, I92T, T97R
